Test results: paper PMC4891089

Sequences of proteins named here, by UniProt entry; tags and fusion partners are left off. Residues count along the entry.
UniProt P15976, 151-251: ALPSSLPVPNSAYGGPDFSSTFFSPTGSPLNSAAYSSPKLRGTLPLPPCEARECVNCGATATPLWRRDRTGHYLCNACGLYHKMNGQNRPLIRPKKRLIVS

How the values were obtained:
FLAG-GATA1 [1] = target: FLAG-GATA1 (UniProt P15976); assay: EMSA; conditions: LightShift Chemiluminescent EMSA Kit (Pierce) per manufacturer, nuclear extract, 5% native PAGE; pH and binding temperature not stated; protein in an extract; residues 1-413; protein details: FLAG; label: 5'-biotin
[2] = target: T1, FLAG-GATA1 (1-150), activation domain (UniProt P15976); assay: EMSA; conditions: LightShift Chemiluminescent EMSA Kit (Pierce) per manufacturer, nuclear extract, 5% native PAGE; pH and binding temperature not stated; protein in an extract; residues 1-150; protein details: FLAG; label: 5'-biotin
T1 sequence (looked up): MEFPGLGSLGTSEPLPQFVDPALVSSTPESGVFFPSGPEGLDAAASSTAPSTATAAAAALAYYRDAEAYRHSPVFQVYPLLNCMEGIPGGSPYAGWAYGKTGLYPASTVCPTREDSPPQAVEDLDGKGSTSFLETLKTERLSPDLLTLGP

[3] = target: T2, FLAG-GATA1 (252-413), C-terminal zinc finger (UniProt P15976); assay: EMSA; conditions: LightShift Chemiluminescent EMSA Kit (Pierce) per manufacturer, nuclear extract, 5% native PAGE; pH and binding temperature not stated; protein in an extract; residues 252-413; protein details: FLAG; label: 5'-biotin
T2 sequence (looked up): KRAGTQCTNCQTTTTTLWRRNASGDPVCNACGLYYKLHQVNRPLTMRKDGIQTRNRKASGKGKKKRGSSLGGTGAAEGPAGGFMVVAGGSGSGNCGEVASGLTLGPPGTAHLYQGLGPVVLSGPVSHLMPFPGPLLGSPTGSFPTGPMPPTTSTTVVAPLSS

[4] = target: FLAG-GATA1 (151-251), N-terminal zinc finger (UniProt P15976); assay: EMSA; conditions: LightShift Chemiluminescent EMSA Kit (Pierce) per manufacturer, nuclear extract, 5% native PAGE; pH and binding temperature not stated; protein in an extract; residues 151-251; protein details: FLAG; label: 5'-biotin
FLAG-GATA1 [5] = target: FLAG-GATA1 (UniProt P15976); assay: competition with a labelled probe; conditions: 100-fold molar excess unlabeled GATC over biotin-GATC probe; LightShift Chemiluminescent EMSA Kit (Pierce) per manufacturer, nuclear extract, 5% native PAGE; pH and binding temperature not stated; protein in an extract; residues 1-413; protein details: FLAG

“CTGGGCTTGGGCTGATAGAAGCCTTGGCCC (double strand) [GATA probe (VEGF promoter)]”: no binding (FLAG-GATA1 [1]).
“TGGTAGCGGGGAGGATCGCGGAGGCTTGGG (double strand) [GATC probe (VEGF promoter)]”: no binding [2]; binds [3]; no binding [4]. “TGGTAGCGGGGAGGATCGCGGAGGCTTGGG (double strand) [GATC probe (VEGF promoter)]”: binds (FLAG-GATA1 [1]).
“TGGTAGCGGGGAGGATCGCGGAGGCTTGGG (double strand) [unlabeled GATC competitor]”: binds (FLAG-GATA1 [5]).
“TGGTAGCGGGGAGTCGAGCGGAGGCTTGGG (double strand) [GATC-M probe (mutated GATC site)]”: no binding (FLAG-GATA1 [1]).

At least one result comes from cells or an extract, where the contact may be indirect. For some of these results: No signal at the amounts used counts as a negative. For some of these results: Protein sequences can lack the tags named with them. For some of these results: Construct, isoform or probe ends are uncertain for at least one entry.
